These are yes or no findings as the source states them, for the method shown. Some binding calls cover weakened binding; strength is not graded here.
Biological target: follistatin-288 (UniProt P19883)
Experiment: co-IP; anti-FST-288 antibody on Protein G magnetic beads captures FST-288; 200 nM pro-activin A complex with 600 nM FST-288; washed with PBS with additional 400 mM NaCl; SDS-PAGE; both purified

By UniProt entry, the sequences of proteins in these tests, tags left out. Residues count along the entry.
UniProt P19883, residues 30-317: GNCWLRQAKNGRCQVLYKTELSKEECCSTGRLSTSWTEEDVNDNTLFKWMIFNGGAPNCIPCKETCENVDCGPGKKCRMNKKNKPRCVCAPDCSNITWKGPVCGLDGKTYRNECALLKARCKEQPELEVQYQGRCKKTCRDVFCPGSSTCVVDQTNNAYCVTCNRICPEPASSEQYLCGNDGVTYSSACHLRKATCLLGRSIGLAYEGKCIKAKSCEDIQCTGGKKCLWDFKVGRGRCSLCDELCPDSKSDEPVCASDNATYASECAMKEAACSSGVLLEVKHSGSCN
UniProt P08476, residues 311-426: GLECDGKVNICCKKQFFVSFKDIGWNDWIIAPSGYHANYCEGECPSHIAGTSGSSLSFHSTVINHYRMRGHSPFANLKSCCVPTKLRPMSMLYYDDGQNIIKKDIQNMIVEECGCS

binding: binds
Substance: mature activin A (disulfide-linked dimer of the mature domain of inhibin βA) (from UniProt P08476 311-426) (ligand)
